# According to publication PMC7359353, “Rab27a co-ordinates actin-dependent transport by controlling organelle-associated motors and track assembly proteins” (Nature Communications, 2020):
# Molecular target: T1, GST-Rab27a-Q78L (UniProt P23640 1-221, Q78L)
# T1 construct: Rab27a; rat Rab27a is stated only for the BiFC constructs; also called GTP-locked Rab27a-Q78L; active Rab27a-Q78L; source: E. coli Rosetta, purified (GSH-Sepharose 4B, size-exclusion chromatography)
# T1 sequence (looked up): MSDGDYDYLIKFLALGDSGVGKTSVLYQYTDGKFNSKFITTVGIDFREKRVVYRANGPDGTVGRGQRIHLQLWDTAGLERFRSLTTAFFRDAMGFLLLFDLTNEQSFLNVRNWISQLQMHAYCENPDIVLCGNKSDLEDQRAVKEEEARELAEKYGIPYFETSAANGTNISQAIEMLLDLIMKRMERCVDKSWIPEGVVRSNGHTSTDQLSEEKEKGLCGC
# Assay: pull-down; 50 µg GST-Rab27a (Q78L or T23N) coupled to GSH-Sepharose 4B beads, incubated with HEK293 cell lysates 2 h at 4 °C; 25 mM Tris-HCl pH 7.4, 150 mM NaCl, 5 mM MgCl2, 10% glycerol, 0.1% Nonidet P-40; bound proteins analysed by immunoblotting (anti-c-Myc, anti-GFP); only the target purified
row,binding,Substance
1,no binding,SPIRE1 E548K (from UniProt Q08AE8-2)
2,no binding,SPIRE1 E548A (from UniProt Q08AE8-2)

# These are yes or no findings as the source states them, for the method shown. Binding seen in cells or lysates may run through a third protein. Where a sequence is shown, tags or fusion partners need not be part of it.
